Hit rate of the full screen: of about 31,000 sequences, about 1,400 (4.5%) were called active.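 How the source made its calls: active means median seed-adjusted z-score above 1 or below -1; inactive means the rest.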 The list shows a part of the results.

The experiment in a line: Novel Modifiers of Survival Motor Neuron (SMN) Protein: Gene Identification via Genome-wide siRNA Screen.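 Further: luminescence tracks full-length SMN protein made from the SMN2 reporter.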 To be noted: HEK293T SMN2-luciferase reporter, siRNA knockdown, 72 h; actives lie on both sides. In outline:
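HEK293T cells stably expressing an SMN2 splicing/cDNA-luciferase reporter were reverse-transfected with a druggable-genome siRNA library and read by luminescence at 72 hours; hits defined by MAD score above 1.0 or below -1.0.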
With GGCUAGAAAUAUUGCGAUUTT against DOCK9, the median seed-adjusted z-score was inactive: 0.61. On to CUGUCUCGCUUGUCAUAUATT against POLR3B, for which the median seed-adjusted z-score is inactive: -0.151. As for AGAUCGAGACGCUCACGCUTT against BHLHA15, the median seed-adjusted z-score was inactive: -0.199.

As for GGGACUCUGUAUUCCCUCUTT against WFDC2, the median seed-adjusted z-score is inactive: -0.466. As to CUACGGCUACGUCUACAUCTT against GPR25, the median seed-adjusted z-score was inactive: 0.377. For the sequence GAUGCAUCAUCUGAAUAAATT against CPA6, the median seed-adjusted z-score was inactive: 0.343. On to AGUUUGAUGUUAUCAAUCUTT against PRKAG1, for which the median seed-adjusted z-score was inactive: 0.431.

As to CAUCCUCGUUGUGAAUUUATT against SGCG, the median seed-adjusted z-score is inactive: 0.886. AGUCCUCGGUGAUGCGUGATT against LMNB2: the median seed-adjusted z-score is inactive: -0.15. The result for GCUCUCAUAUCAUUCCAUUTT against PPIL5 reads inactive: 0; that for GAGAUGUUCCAGACCUUUUTT against DNAJC27, inactive: 0.252; that for GUGUUAACCCUGAUCUUCUTT against GPT, inactive: -0.00224. Consider GAACCGAGACGAACUGAAUTT against TBXAS1, for which the median seed-adjusted z-score is inactive: 0. For GGAUAGGAGAUCAUAGUCATT against RAPGEF6, the median seed-adjusted z-score is inactive: -0.186. CGCGGACUGCGCUUACAAATT against ISLR2: the median seed-adjusted z-score was inactive: 0.263. Regarding GAGGUGAACUGGAAGCGAATT against MBOAT1, the median seed-adjusted z-score was active: -1.22. For the sequence GCCGAAACCUCAUGAGUUATT against EDEM1, the median seed-adjusted z-score is inactive: -0.175.

Turning to GGACUAAUGCUAAGGUUAUTT against ABCA6, the median seed-adjusted z-score was inactive: 0.113. As for GAUUCUGGAGAGUACGUAUTT against IGSF10, the median seed-adjusted z-score was inactive: -0.0992. Take GAAGAAUGCCGCUUUGAAATT against MGAT2: the median seed-adjusted z-score is inactive: -0.124.

Take GCUUAUUGUUCCGAAUGUATT against AP3B1: the median seed-adjusted z-score is inactive: 0.31. In the case of GAGAUGAAACGGUCUCGAATT against ARHGEF11 it was inactive: -0.525; in that of CAAGCAUCCUAAUCUGGUATT against ABL2, inactive: 0.293; in that of CCAUGAUUCUCGCAUCCAUTT against 10-Sep, inactive: 0.571.

With GAGAUGAACUCAACAUGAUTT against CATSPER4, the median seed-adjusted z-score is inactive: -0.669. In the case of GGUUAGACAUCAGUCCUUUTT against DHX15, the median seed-adjusted z-score is active: 1.36.

Regarding GGUCAUUAUUGGUGAGCAATT against HARS2, the median seed-adjusted z-score was inactive: 0. CAGUCCUGAUUGCAUCAUATT against LDHB: the median seed-adjusted z-score is inactive: -0.515.

Consider UGGUUGUAUCAACUAUGAATT against MYL6, for which the median seed-adjusted z-score is inactive: -0.228. In the case of GCAUCUACUUUGCCGGCGATT against IL4I1, the median seed-adjusted z-score was inactive: -0.441. In the case of GCCCAGCACCUACUUGUAATT against ENTPD2, the median seed-adjusted z-score is inactive: 0.0319. As for GGAUAAGAGCUGUCCUAGATT against EDEM3, the median seed-adjusted z-score was inactive: 0.119. For GCAUGAAGCCUGCAUUCUUTT against TBX21, the median seed-adjusted z-score was inactive: -0.454. Regarding CAACAGACCUAGAACAGGATT against KRT23, the median seed-adjusted z-score was inactive: -0.0696.

In the case of GGCUGUUGAACUUCAGUUATT against EMR2, the median seed-adjusted z-score was inactive: 0.0569.

Turning to GAUCGAGAGUGACCGAUUATT against HK1, the median seed-adjusted z-score is inactive: -0.129. Consider GACUAUUUAUUCCAGCUUUTT against DLX5, for which the median seed-adjusted z-score was inactive: 0.115. In the case of AGAUCUUGAUUAUUCCAGATT against NR4A3 it was inactive: -0.205. In the case of CCUUAGAUCUGAGUCCAUUTT against NOS1 it was inactive: 0.0195; in that of GCAGAUCCAAGGUCAAGUATT against TGM4, inactive: -0.43; in that of GAAUAAGAGCACAAGUAAATT against SERPINB13, inactive: 0.0593. Turning to GGUAAUAGCUUCUACAAGATT against DPP4, the median seed-adjusted z-score is inactive: 0.0394. Take CUAUCGAUCGCUACCAGAATT against P2RY12: the median seed-adjusted z-score was inactive: 0.143.

As to GCAACUACGUGACUCGCUATT against SMUG1, the median seed-adjusted z-score was active: -1.38. The result for GAUACUUGCUGGAUCUUCATT against 6-Mar reads inactive: -0.483; that for AGAUGUUCUUCGCUAAUAATT against DNMT3A, inactive: -0.643.

For the sequence GCAGCUAUCGACAACAUGATT against PPIE, the median seed-adjusted z-score is inactive: -0.699. In the case of CAACCUAUCAUAUCUGUUUTT against SLC22A16 it was inactive: 0.0878; in that of AGGCAUUCCUCGGAAGUCATT against SMAD7, inactive: -0.25. As to GCCUCAAGAUGUUUGCAAATT against IMP4, the median seed-adjusted z-score was inactive: -0.359. As to GACUUAAGCCGAGUAAAUATT against PGGT1B, the median seed-adjusted z-score was inactive: -0.164. As for UACUGGAGAUGUUACUAUUTT against ARL1, the median seed-adjusted z-score is inactive: 0.347. The result for GCUAGUCUCAAAGCGCAUATT against ZNF236 reads inactive: 0.683; that for ACUCUUAUGUGAUCAUCAATT against CAPN5, inactive: 0.535. Take GGAUAACUUAGAGAAGCAATT against TRIM55: the median seed-adjusted z-score was inactive: -0.483. As to GGUUGUAAGAAGAUAUAUATT against ARHGEF10, the median seed-adjusted z-score was inactive: 0.22.

GUACAUAGAUUCUAGGCAATT against FOXJ3: the median seed-adjusted z-score was inactive: -0.155.

In the case of GCAGAGUCCCUUAGACAGATT against PCDHGA1, the median seed-adjusted z-score was inactive: -0.319. In the case of CAACCACUAUCUCAGUGCATT against BCL2L11 it was inactive: -0.0521; in that of GGUGUACCAGUAUGACAAATT against GPR139, inactive: 0.0111. For CGAGACCGACCAUCCAUAATT against NEK5, the median seed-adjusted z-score was inactive: 0.0403. Turning to GAAGCAUGCUAUCCACGGATT against MCF2L2, the median seed-adjusted z-score was inactive: -0.465.

On to CUUCCACCGCUUCUACCAATT against HSD17B1, for which the median seed-adjusted z-score was inactive: -0.569. On to GGAGAUUCCAUAAGACAAUTT against ZNF114, for which the median seed-adjusted z-score is inactive: -0.303.

With CACUCUUGUUUAUGGAACATT against NUAK1, the median seed-adjusted z-score is inactive: -0.197. For GCCGCAACAUGGAAGUACATT against MAPK8IP3, the median seed-adjusted z-score is inactive: 0.734.

As for GACCCAAACUUCGUGCUAATT against KCNH4, the median seed-adjusted z-score was inactive: -0.769. The result for CGAAGUCUACAAACUCGAUTT against CHST11 reads inactive: -0.275; that for CAGUUAUCAUUCUAGUAUUTT against ATP2B1, inactive: -0.459. In the case of GGACGAAGGACGUGCUGUUTT against SHC2 it was inactive: -0.207. In the case of GUGGUUGUCUAUGACAUUATT against RAB41 it was inactive: -0.534; in that of GAUCUCUCCUGAUUUACCATT against GPR37, inactive: -0.0447. GGAAGUACCUGAGUGUGCATT against MTCH1: the median seed-adjusted z-score is inactive: 0.

Turning to GGAUCUCCCAGGUAUCAUUTT against DRG1, the median seed-adjusted z-score is inactive: 0.336. The result for GGUUCCUGGUGCAUCGAUATT against SORT1 reads inactive: -0.43. In the case of CCUGAAGAAAGACAAGAUATT against POLR3G it was inactive: -0.485; in that of CGGGUAAACUAUGAGCUGATT against ADCY2, inactive: 0.173; in that of GGGAUAGCGAGACCACUAATT against HCK, inactive: -0.48. GGUCAGACUGUCAACCUAATT against ARHGAP12: the median seed-adjusted z-score is inactive: 0.525. As to GCCCGCCCUUCCUAAGUUATT against ZNF787, the median seed-adjusted z-score was inactive: -0.0628. For CUGUUGAUUUGAUAGUUUATT against TK2, the median seed-adjusted z-score is inactive: 0.

In the case of GGGCAACAGUUGAACACCATT against PDK4, the median seed-adjusted z-score was inactive: -0.693. For GGUGGUGGAUGUUUCCAAUTT against TLE3, the median seed-adjusted z-score was inactive: -0.451. Regarding CGUAGUGAUUGGGAAGUGATT against EIF3D, the median seed-adjusted z-score is inactive: 0.104. The result for GCAUCGACCGGGUUUAUGATT against KARS reads inactive: -0.152; that for AGGACAACUCCUACCUGUATT against PRKACG, inactive: 0. For the sequence GUAUCAUGCCCAUCUGAAATT against ZMAT4, the median seed-adjusted z-score is inactive: -0.0468.

Take CGGCAAUCCUUACGGCUAATT against DSG4: the median seed-adjusted z-score is inactive: -0.0211. Consider GGUCUGCAUCUAAGACUAATT against LST-3TM12, for which the median seed-adjusted z-score was inactive: -0.109. The result for GAGCUAUAAUCAGACCUGUTT against ART5 reads inactive: -0.354; that for CGCUCCAAGAAAAAUGAAATT against DYNLRB1, inactive: -0.58.

Take CAGUUUAGGUUCCUAAGUATT against PDXP: the median seed-adjusted z-score is inactive: -0.302. Turning to CGAGGCUCAUGGUACGUCUTT against MSRB2, the median seed-adjusted z-score was inactive: 0.373. For CGAUUAGGACUGACAAUAATT against IFT57, the median seed-adjusted z-score was active: -1.1. For the sequence GGAUAGGUGUUCUUAAACATT against PPP4R1, the median seed-adjusted z-score is inactive: -0.911. In the case of GGAUCGUAUUACUCCAUAUTT against PIK3R4 it was inactive: -0.502; in that of ACGGAACUUUUGUGACAUUTT against PGLYRP3, inactive: -0.671; in that of GCAUCAAUGUCAAGAACGATT against MYLC2PL, inactive: -0.7. Regarding GAGUCUAAAAGAAGUUGUATT against GOT1L1, the median seed-adjusted z-score is inactive: -0.277. As to GGAGAACUCGUUCAAAUGUTT against ZXDA, the median seed-adjusted z-score was inactive: -0.0748. Regarding GAAGCUAAAUUAAGAGCUATT against SSB, the median seed-adjusted z-score is inactive: 0. Consider CCAAGGUUUUGGAUAGCAATT against RHBDL2, for which the median seed-adjusted z-score is inactive: 0.0701. For the sequence CUCAAGGAGUUGCUACUCATT against SPDEF, the median seed-adjusted z-score was inactive: -0.607. CAUUGGACAGUAUUACAAATT against UBE2U: the median seed-adjusted z-score was inactive: -0.0545.

Consider GGACCAGGCCUAUAGCUAUTT against WARS, for which the median seed-adjusted z-score is inactive: -0.724. Regarding GCCCUUGACUUCCUGCAUATT against MKNK1, the median seed-adjusted z-score was inactive: 0.221. In the case of AGAACGACAGGGACAUUUATT against MAPK15, the median seed-adjusted z-score was inactive: 0.0724.

The values are drawn from PubChem BioAssay AID1347426 (Functional Genomics Laboratory (NCATS/FGL), 2020).
